Test results: paper doi:10.1101/2024.07.18.604029
These are yes or no findings as the source states them, for the method shown. For some of these results: Binding seen in cells or lysates may run through a third protein. Some results given as binding are weak or reduced against the parent protein; the word gives no strength. Tags and fused reporters may be left off the sequences shown.

By UniProt entry, the sequences of proteins in these tests, tags left out.
UniProt Q9SK03: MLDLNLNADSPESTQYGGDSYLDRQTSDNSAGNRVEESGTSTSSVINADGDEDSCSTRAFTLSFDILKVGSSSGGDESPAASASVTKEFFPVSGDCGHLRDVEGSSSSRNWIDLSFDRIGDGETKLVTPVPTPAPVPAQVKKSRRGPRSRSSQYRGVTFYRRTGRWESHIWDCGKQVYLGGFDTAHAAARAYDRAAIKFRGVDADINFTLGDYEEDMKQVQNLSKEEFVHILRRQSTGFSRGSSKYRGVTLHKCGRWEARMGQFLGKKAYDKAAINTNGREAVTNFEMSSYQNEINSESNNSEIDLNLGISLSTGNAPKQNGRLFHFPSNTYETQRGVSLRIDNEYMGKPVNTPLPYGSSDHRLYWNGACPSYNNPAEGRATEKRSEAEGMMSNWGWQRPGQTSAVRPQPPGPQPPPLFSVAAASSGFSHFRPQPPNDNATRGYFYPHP

T1: EIN6 ENHANCER (EEN), bait fusion in pGBKT7 (Arabidopsis thaliana) (UniProt Q8RWS0)
T1 sequence: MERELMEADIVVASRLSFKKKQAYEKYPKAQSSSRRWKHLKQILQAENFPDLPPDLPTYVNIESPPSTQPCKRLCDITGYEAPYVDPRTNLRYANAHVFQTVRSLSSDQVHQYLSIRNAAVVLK

T2: … PROTEIN 5 (ARP5), bait fusion in pGBKT7 (Arabidopsis thaliana) (UniProt Q940Z2)
T2 sequence: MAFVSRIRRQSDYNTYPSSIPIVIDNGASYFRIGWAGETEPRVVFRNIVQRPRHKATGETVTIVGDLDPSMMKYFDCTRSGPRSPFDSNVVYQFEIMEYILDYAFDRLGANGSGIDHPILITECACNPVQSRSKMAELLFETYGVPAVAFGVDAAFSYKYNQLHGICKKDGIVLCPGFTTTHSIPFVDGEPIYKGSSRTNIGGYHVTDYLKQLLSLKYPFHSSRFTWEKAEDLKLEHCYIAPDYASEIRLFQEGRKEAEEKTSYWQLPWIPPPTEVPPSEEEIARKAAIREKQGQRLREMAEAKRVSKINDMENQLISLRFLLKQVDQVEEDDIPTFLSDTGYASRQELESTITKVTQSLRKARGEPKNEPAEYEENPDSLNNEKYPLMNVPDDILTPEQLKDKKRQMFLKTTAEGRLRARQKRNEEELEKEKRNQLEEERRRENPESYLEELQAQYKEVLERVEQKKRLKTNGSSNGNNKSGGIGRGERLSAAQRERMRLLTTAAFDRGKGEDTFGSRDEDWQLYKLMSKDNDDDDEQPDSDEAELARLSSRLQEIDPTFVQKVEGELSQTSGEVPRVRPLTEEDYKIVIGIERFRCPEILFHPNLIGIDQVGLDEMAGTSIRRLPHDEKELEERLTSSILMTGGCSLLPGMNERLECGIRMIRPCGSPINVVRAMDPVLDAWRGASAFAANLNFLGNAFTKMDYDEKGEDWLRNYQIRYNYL

T3: EEN fused to the N-terminal fragment of CFP (pSCYNE(R)) (Arabidopsis thaliana) (UniProt Q8RWS0)
T3 sequence: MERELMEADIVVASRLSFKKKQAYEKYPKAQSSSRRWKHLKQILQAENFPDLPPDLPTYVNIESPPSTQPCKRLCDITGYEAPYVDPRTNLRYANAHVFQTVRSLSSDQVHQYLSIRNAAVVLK


Legend:
[1] = biological target: T1, EIN6 ENHANCER (EEN), bait fusion in pGBKT7 (Arabidopsis thaliana); assay: two-hybrid
[2] = biological target: T2, … PROTEIN 5 (ARP5), bait fusion in pGBKT7 (Arabidopsis thaliana); assay: two-hybrid
[3] = biological target: T3, EEN fused to the N-terminal fragment of CFP (pSCYNE(R)) (Arabidopsis thaliana); assay: split reporter

Row | Molecule | binding [1] | binding [2] | binding [3]
1 | TOE1 fused to the C-terminal fragment of CFP (pSCYCE(R)) (from UniProt Q9SK03 1-449) |  |  | binds
2 | ABA … 3 (ABI3), prey fusion in pGADT7 (protein, UniProt Q01593 1-720) MKSLHVAANAGDLAEDCGILGGDADDTVLMDGIDEVGREIWLDDHGGDNNHVHGHQDDDLIVHHDPSIFYGDLPTLPDFPCMSSSSSSSTSPAPVNAIVSSASSSSAASSSTSSAASWAILRSDGEDPTPNQNQYASGNCDDSSGALQSTASMEIPLDSSQGFGCGEGGGDCIDMMETFGYMDLLDSNEFFDTSAIFSQDDDTQNPNLMDQTLERQEDQVVVPMMENNSGGDMQMMNSSLEQDDDLAAVFLEWLKNNKETVSAEDLRKVKIKKATIESAARRLGGGKEAMKQLLKLILEWVQTNHLQRRRTTTTTTNLSYQQSFQQDPFQNPNPNNNNLIPPSDQTCFSPSTWVPPPPQQQAFVSDPGFGYMPAPNYPPQPEFLPLLESPPSWPPPPQSGPMPHQQFPMPPTSQYNQFGDPTGFNGYNMNPYQYPYVPAGQMRDQRLLRLCSSATKEARKKRMARQRRFLSHHHRHNNNNNNNNNNQQNQTQIGETCAAVAPQLNPVATTATGGTWMYWPNVPAVPPQLPPVMETQLPTMDRAGSASAMPRQQVVPDRRQGWKPEKNLRFLLQKVLKQSDVGNLGRIVLPKKEAETHLPELEARDGISLAMEDIGTSRVWNMRYRFWPNNKSRMYLLENTGDFVKTNGLQEGDFIVIYSDVKCGKYLIRGVKVRQPSGQKPEAPPSSAATKRQNKSQRNINNNSPSANVVVASPTSQTVK | no binding | no binding | 

Continued, values first:

Row | binding [1] | binding [2] | binding [3] | Molecule
3 | binds | binds |  | TARGET OF EARLY ACTIVATION TAGGED (EAT) 1 (TOE1), prey fusion in pGADT7 (from UniProt Q9SK03 1-449)
4 | no binding | no binding |  | LEAFY COTYLEDON 2 (LEC2), prey fusion in pGADT7 (protein, UniProt Q1PFR7 1-363) MDNFLPFPSSNANSVQELSMDPNNNRSHFTTVPTYDHHQAQPHHFLPPFSYPVEQMAAVMNPQPVYLSECYPQIPVTQTGSEFGSLVGNPCLWQERGGFLDPRMTKMARINRKNAMMRSRNNSSPNSSPSELVDSKRQLMMLNLKNNVQISDKKDSYQQSTFDNKKLRVLCEKELKNSDVGSLGRIVLPKRDAEANLPKLSDKEGIVVQMRDVFSMQSWSFKYKFWSNNKSRMYVLENTGEFVKQNGAEIGDFLTIYEDESKNLYFAMNGNSGKQNEGRENESRERNHYEEAMLDYIPRDEEEASIAMLIGNLNDHYPIPNDLMDLTTDLQHHQATSSSMPPEDHAYVGSSDDQVSFNDFEWW
